PubChem BioAssay AID1159595 – NIAID – 2016
The whole screen tested 756 reagents; shown is a part drawn at random. In the full data, 115 (15%) are marked active. 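Active calls cover both lowered and raised reporter signal; each score refers to one siRNA rather than a whole gene.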 Reagents against one gene are numbered here. Reagent sequences are not shown. Not given: the amount of reagent.

Assay: 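Contribution of 126 core TLR signalling genes to the Pam3CSK4 inflammatory response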 (primary screen)
Cell system: mouse RAW264.7 macrophage reporter cells
Reagents: single siRNA against mouse genes
Timing: assayed 48 to 72 hours after siRNA transfection; ligand applied for 16 hours
Conditions: Pam3CSK4 (TLR2 ligand) for 16 hours before fixation; dose not given
Detection: 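High-content imaging of Tnf promoter-driven nuclear mCherry in cells given Pam3CSK4 for 16 h, 48–72 h after transfection; value is the replicate mean of plate-normalised background-corrected robust z-scores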
Scale: Tnf reporter z-score (replicate mean): higher = stronger Tnf promoter reporter signal than negative control wells
Call rule: 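Calls apply to single siRNAs, not genes: activity graded at absolute z of 1, 1.5, 2 and 2.5, and active means averaged z at or beyond ±1.5, i.e. activity score 50 or above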
Calls: active = strong change (up or down); inactive = little change

Target gene,reagent no.,Tnf reporter z-score (replicate mean),call
Map3k7,1,-1.03,inactive
Map3k7,2,0.266,inactive
Map3k7,3,-0.734,inactive
Map3k7,4,0.592,inactive
Map3k7,5,-0.331,inactive
Map3k7,6,-1.76,active
Tab1,1,0.386,inactive
Tab1,2,-1.5,inactive
Tab1,3,-0.431,inactive
Tab1,4,-1.11,inactive
Tab1,5,1.42,inactive
Tab1,6,-0.845,inactive
Traf6,1,-0.833,inactive
Traf6,2,-1.61,active
Traf6,3,-2.69,active
Traf6,4,-0.516,inactive
Traf6,5,-0.814,inactive
Traf6,6,-0.942,inactive
Cd180,1,-0.98,inactive
Cd180,2,0.0994,inactive
Cd180,3,-0.0558,inactive
Cd180,4,-0.74,inactive
Cd180,5,-1.23,inactive
Cd180,6,-0.541,inactive
Tlr5,1,-0.988,inactive
Tlr5,2,1.38,inactive
Tlr5,3,0.495,inactive
Tlr5,4,0.631,inactive
Tlr5,5,-0.453,inactive
Tlr5,6,0.0291,inactive
Map2k4,1,0.599,inactive
Map2k4,2,-0.51,inactive
Map2k4,3,0.069,inactive
Map2k4,4,0.537,inactive
Map2k4,5,-1.06,inactive
Map2k4,6,-1.22,inactive
Ptk2b,1,-0.428,inactive
Ptk2b,2,1.38,inactive
Ptk2b,3,-0.695,inactive
Ptk2b,4,-0.535,inactive
Ptk2b,5,0.666,inactive
Ptk2b,6,0.552,inactive
Atf2,1,-1.51,active
Atf2,2,-0.865,inactive
Atf2,3,-0.409,inactive
Atf2,4,1.6,active
Atf2,5,-1.35,inactive
Atf2,6,-0.518,inactive
Pik3cb,1,0.0977,inactive
Pik3cb,2,-2.19,active
Pik3cb,3,-0.224,inactive
Pik3cb,4,0.866,inactive
Pik3cb,5,-1.72,active
Pik3cb,6,-1.55,active
Egr1,1,-0.78,inactive
Egr1,2,-1.99,active
Egr1,3,-1.34,inactive
Egr1,4,0.0387,inactive
Egr1,5,-1.32,inactive
Egr1,6,-0.294,inactive
Tollip,1,0.0503,inactive
Tollip,2,-0.287,inactive
Tollip,3,-1.92,active
Tollip,4,-0.207,inactive
Tollip,5,1.64,active
Tollip,6,-1.71,active
Tank,1,-1.43,inactive
Tank,2,1.47,inactive
Tank,3,0.548,inactive
Tank,4,0.58,inactive
Tank,5,1.3,inactive
Tank,6,0.366,inactive
Tnf,1,-0.363,inactive
Tnf,2,0.679,inactive
Tnf,3,-1.27,inactive
Tnf,4,-0.799,inactive
Tnf,5,-1.44,inactive
Tnf,6,-2.38,active
Irak2,1,-0.923,inactive
Irak2,2,-1.8,active
Irak2,3,-1.8,active
Irak2,4,-1.48,inactive
Irak2,5,-1.71,active
Irak2,6,-1.93,active
Il1b,1,0.179,inactive
Il1b,2,-0.642,inactive
Il1b,3,-0.0071,inactive
Il1b,4,0.245,inactive
Il1b,5,0.132,inactive
Il1b,6,-0.263,inactive
Casp8,1,0.132,inactive
Casp8,2,-1.1,inactive
Casp8,3,-0.224,inactive
Casp8,4,0.581,inactive
Casp8,5,1.15,inactive
Casp8,6,0.624,inactive
Ube2n,1,-0.248,inactive
Ube2n,2,-0.532,inactive
Ube2n,3,-0.536,inactive
Ube2n,4,-0.34,inactive
Ube2n,5,0.0938,inactive
Ube2n,6,-0.654,inactive
Tlr4,1,-0.325,inactive
Tlr4,2,0.405,inactive
Tlr4,3,0.163,inactive
Tlr4,4,0.142,inactive
Tlr4,5,0.661,inactive
Tlr4,6,0.405,inactive
Chuk,1,0.695,inactive
Chuk,2,-1.98,active
Chuk,3,0.66,inactive
Chuk,4,-1.08,inactive
Chuk,5,-0.175,inactive
Chuk,6,-0.188,inactive
Jun,1,-1.26,inactive
Jun,2,-0.505,inactive
Jun,3,-0.0401,inactive
Jun,4,-0.399,inactive
Jun,5,-0.343,inactive
Jun,6,1.11,inactive
Cxcl9,1,-1.97,active
Cxcl9,2,-0.0204,inactive
Cxcl9,3,-0.0939,inactive
Cxcl9,4,-0.977,inactive
Cxcl9,5,0.554,inactive
Cxcl9,6,-0.0244,inactive
Dab2ip,1,-0.144,inactive
Dab2ip,2,-0.616,inactive
Dab2ip,3,1.62,active
Dab2ip,4,-1.55,active
Dab2ip,5,-0.771,inactive
Dab2ip,6,1.19,inactive
Nfkbie,1,-1.07,inactive
Nfkbie,2,-0.428,inactive
Nfkbie,3,0.157,inactive
Nfkbie,4,-0.167,inactive
Nfkbie,5,-0.0646,inactive
Nfkbie,6,0.364,inactive
Map3k14,1,0.578,inactive
Map3k14,2,0.822,inactive
Map3k14,3,-0.856,inactive
Map3k14,4,0.323,inactive
Map3k14,5,-1.34,inactive
Map3k14,6,-1.22,inactive
